Reference: paper PMC11170107, “Development of a new hazard scoring system in primary neuronal cell cultures for drug-induced acute neuronal toxicity identification in early drug discovery” (Frontiers in Pharmacology, 2024)

What was measured:
[1] = Supplementary Table S1; cited from earlier work
[2] = tested on: rat primary cortical neurons; assay: MEA hazard scoring in rat primary cortical neuronal cultures; details: up to 30-fold its free Cmax

changes in vitro on MEA [2]: did not induce any changes
SMILES: COc1cc2c(cc1OC)C(=O)C(CC1CCN(Cc3ccccc3)CC1)C2 (centres unmarked) [Donepezil]
Free Cmax highest [1]: 10 nM
